Measured values: doi:10.1101/2022.10.21.513154
These are yes or no findings as the source states them, for the method shown.

The chains behind the UniProt entries cited, without tags or fusion partners. Residues count along the entry.
UniProt O34558, 2-325: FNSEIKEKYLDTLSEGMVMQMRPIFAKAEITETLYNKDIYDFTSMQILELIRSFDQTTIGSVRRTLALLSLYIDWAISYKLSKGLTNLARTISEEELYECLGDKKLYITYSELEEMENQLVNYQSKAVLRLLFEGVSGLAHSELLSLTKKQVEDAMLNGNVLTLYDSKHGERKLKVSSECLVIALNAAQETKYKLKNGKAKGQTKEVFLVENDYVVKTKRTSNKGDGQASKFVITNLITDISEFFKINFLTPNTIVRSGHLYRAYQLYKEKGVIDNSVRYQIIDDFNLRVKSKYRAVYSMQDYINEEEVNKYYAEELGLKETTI

Legend:
[1] = target: YopR wild type protein (YopR-His6) (SPβ prophage of Bacillus subtilis 168) (UniProt O34558); assay: crystal structure
[2] = target: YopR wild type protein (YopR-His6) (SPβ prophage of Bacillus subtilis 168) (UniProt O34558); assay: SEC

In the case of “YopR wild type protein (YopR-His6) (from UniProt O34558 2-325)”, the binding [1] is reported as “no binding” and the binding [2] is reported as “no binding (tested: 100 µM)”.
